Consider 20 compounds from the supplement of paper PMC12889115.

This test concerns Salmonella enterica serovar Typhimurium SL1344. Put plainly: bacterial growth OD600 after 18 h with compound and polymyxin B; higher = more bacterial growth (less inhibition). As to conditions: 50 µM, Mueller-Hinton broth.

The other results are listed elsewhere or left out. These are raw signals, not scaled to a control.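 Primary screen: polymyxin B was added at a level permeabilizing Salmonella outer membranes while sparing inner membranes. DMSO wells, both with and without polymyxin B, established maximum growth. Plate-to-plate variation meant each plate was ranked on its own, and the lowest-OD600 compounds were selected as hits.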

As to `CCOC(=O)N1CCN(C(=O)c2cc(NC(=O)CC)cc3nc(Cc4ccccc4)n(C)c23)CC1`, for the setting “polymyxin B 0.75 µg/mL”, the “bacterial growth OD600” value came out at 0.834. In the case of `CSc1ncc(CN2CCCC(CCC(=O)Nc3ccccc3F)C2)cn1` (stereo not given), the “bacterial growth OD600” value (polymyxin B 1 µg/mL) was found to be 0.856. With `O=C1CCC(CCC(=O)N2CCC(C(O)(c3ccccc3)c3ccccc3)CC2)(Cc2ccccc2)N1` (stereo not given), the “bacterial growth OD600” value (polymyxin B 0.75 µg/mL) was 0.95. Regarding `O=C(c1ccncc1)N1CCc2onc(-c3ccc4c(c3)OCO4)c2C1`, the “bacterial growth OD600” value (polymyxin B 0.75 µg/mL) was determined as 0.813. For `O=C1O[C@@H]2CN(C3CCOCC3)C[C@@H]2N1CCc1cccc(Cl)c1`, the “bacterial growth OD600” value (polymyxin B 1 µg/mL) was 0.889. With `Cc1ccc(C(=O)NCc2c(C)ncc3c2CCN(C(=O)c2ccc(-n4ccnc4)cc2)C3)s1`, the “bacterial growth OD600” value (polymyxin B 0.75 µg/mL) was 0.859.

For the compound `COc1ccccc1CN1CC(C(=O)N2CCC(c3ccncc3)CC2)CCC1=O` (stereo not given), the “bacterial growth OD600” value (polymyxin B 1 µg/mL) turned out to be 0.939. Still for that read-out and setting: the result for `C=CCS(=O)(=O)N1C[C@H]2OC(=O)N(CCc3cccc(Cl)c3)[C@H]2C1` reads 0.904; that for `COc1ccc(N2CCN(C3CCCN(C/C=C/c4ccccc4OC)C3)CC2)cc1` (stereo not given), 1.22; that for `COC1CCN(c2ccc(C(=O)N3CCC(CCn4cccn4)CC3)cn2)CC1`, 0.959. For the compound `O=C(CN1CCCCCC1)NCc1cccnc1Oc1ccc(F)cc1F`, the “bacterial growth OD600” value (polymyxin B 1 µg/mL) was determined as 1.

With `CCCCN(Cc1ccccc1)Cc1c[nH]nc1-c1ccc(OC)cc1OC`, the “bacterial growth OD600” value (polymyxin B 1 µg/mL) was 1.24.

`CN(CC1CCOCC1)C(=O)c1csc2nc(-c3cccc(F)c3)cn12`: the “bacterial growth OD600” value (polymyxin B 1 µg/mL) turned out to be 1.11. For `COCC(C)NC(=O)C1CCN(C2CCN(CCCc3ccccc3)CC2)CC1` (stereo not given), the “bacterial growth OD600” value (polymyxin B 0.75 µg/mL) came to 1.02. As for `CCNC(=O)NCc1cccnc1N1CCc2ccccc2C1`, under “polymyxin B 1 µg/mL”, the “bacterial growth OD600” value is 0.925.

As to `COC(C(=O)Nc1ccnn1C1CCN(C(C)C)CC1)c1ccccc1` (stereo not given), the “bacterial growth OD600” value (polymyxin B 0.75 µg/mL) turned out to be 0.831.

`COCCNC(=O)c1ccc(OC)cc1OC1CCN(Cc2cnc(N(C)C)s2)CC1`: the “bacterial growth OD600” value (polymyxin B 0.75 µg/mL) worked out at 0.835.

Regarding `CCc1cc(CNC(=O)c2cc(Cn3cnc4ccccc43)[nH]n2)on1`, where the note is “polymyxin B 1 µg/mL”, the “bacterial growth OD600” value turned out to be 1.04. Regarding `COc1ccc(C(=O)NCc2cccnc2N2CCN(C)CC2)c(OC)n1`, the “bacterial growth OD600” value (polymyxin B 0.75 µg/mL) stood at 0.949. `COc1ccc(CN(C)Cc2nc(-c3ccc(C(F)(F)F)cc3)no2)cc1OC`: the “bacterial growth OD600” value (polymyxin B 1 µg/mL) came out at 0.853.
